According to the supplement of paper PMC10849652:
The other results are listed elsewhere or left out.

Sequences of proteins named here, by UniProt entry; tags and fusion partners are left off. A change or cut given only in a name is not applied to a line headed by its entry.
UniProt P16219: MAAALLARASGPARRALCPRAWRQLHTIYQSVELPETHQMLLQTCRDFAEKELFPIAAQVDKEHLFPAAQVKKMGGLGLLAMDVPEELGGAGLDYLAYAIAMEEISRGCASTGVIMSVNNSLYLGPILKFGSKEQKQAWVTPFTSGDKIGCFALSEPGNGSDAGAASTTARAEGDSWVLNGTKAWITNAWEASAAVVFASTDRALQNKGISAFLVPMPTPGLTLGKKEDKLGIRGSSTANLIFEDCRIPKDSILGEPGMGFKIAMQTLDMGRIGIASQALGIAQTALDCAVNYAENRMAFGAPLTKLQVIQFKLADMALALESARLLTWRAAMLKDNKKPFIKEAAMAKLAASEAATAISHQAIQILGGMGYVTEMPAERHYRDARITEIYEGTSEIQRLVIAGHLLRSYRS
UniProt O14672: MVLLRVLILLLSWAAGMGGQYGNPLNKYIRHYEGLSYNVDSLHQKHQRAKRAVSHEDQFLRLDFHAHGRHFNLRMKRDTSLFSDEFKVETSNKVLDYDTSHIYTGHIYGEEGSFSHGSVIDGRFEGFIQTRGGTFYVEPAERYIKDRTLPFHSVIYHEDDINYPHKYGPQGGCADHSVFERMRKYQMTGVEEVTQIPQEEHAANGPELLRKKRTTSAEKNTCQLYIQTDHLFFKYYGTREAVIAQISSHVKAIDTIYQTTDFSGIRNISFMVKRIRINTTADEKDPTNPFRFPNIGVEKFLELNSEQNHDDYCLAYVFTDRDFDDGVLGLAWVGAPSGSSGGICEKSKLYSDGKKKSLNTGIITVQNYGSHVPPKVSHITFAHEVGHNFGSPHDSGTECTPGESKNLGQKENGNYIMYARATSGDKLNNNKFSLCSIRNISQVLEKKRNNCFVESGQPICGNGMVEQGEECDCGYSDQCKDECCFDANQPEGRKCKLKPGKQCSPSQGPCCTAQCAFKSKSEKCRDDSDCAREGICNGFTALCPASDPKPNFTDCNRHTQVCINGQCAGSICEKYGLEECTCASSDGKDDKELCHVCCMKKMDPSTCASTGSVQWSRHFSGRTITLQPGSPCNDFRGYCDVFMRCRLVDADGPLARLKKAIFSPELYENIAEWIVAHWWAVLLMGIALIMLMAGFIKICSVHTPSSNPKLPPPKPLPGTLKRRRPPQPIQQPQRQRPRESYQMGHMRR
UniProt Q8N2K0: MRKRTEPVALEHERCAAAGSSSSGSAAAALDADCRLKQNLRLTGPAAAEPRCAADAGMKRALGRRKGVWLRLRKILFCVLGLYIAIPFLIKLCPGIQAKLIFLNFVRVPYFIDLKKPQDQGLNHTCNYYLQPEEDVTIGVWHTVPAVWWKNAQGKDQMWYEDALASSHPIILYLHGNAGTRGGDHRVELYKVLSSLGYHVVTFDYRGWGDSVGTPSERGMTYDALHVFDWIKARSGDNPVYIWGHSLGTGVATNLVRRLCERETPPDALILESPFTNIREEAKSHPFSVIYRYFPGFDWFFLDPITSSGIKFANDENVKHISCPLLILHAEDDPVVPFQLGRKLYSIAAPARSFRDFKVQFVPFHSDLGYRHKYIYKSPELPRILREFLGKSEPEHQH
UniProt O14639: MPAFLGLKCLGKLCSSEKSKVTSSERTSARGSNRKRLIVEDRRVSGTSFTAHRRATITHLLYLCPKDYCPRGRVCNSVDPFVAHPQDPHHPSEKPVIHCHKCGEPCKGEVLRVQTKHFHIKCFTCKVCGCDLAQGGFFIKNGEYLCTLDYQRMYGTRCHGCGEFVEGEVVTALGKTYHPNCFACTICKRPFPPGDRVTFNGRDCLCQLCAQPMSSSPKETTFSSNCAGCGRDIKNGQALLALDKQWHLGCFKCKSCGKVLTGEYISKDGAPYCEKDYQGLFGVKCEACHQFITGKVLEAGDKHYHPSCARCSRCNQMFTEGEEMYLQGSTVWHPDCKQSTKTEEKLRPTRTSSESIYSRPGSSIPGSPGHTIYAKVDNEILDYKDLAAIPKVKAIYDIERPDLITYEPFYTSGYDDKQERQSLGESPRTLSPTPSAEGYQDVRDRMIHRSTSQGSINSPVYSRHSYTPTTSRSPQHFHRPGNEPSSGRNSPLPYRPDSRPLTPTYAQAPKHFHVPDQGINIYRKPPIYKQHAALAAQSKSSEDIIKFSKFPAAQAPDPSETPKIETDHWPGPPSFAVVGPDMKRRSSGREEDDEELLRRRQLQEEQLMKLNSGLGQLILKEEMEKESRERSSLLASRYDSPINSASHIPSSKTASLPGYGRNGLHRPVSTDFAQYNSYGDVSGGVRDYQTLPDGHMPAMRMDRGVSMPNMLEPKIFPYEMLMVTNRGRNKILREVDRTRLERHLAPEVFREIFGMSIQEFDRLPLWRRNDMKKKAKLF
UniProt O14734: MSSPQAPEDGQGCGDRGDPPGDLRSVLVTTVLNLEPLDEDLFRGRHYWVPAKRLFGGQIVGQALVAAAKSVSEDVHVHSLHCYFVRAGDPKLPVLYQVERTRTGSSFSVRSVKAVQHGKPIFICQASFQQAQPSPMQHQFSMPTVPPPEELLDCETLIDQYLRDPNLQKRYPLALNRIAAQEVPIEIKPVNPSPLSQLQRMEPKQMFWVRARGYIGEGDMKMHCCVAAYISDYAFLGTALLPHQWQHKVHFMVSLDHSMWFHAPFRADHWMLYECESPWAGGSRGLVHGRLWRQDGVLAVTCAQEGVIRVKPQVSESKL
UniProt O15439: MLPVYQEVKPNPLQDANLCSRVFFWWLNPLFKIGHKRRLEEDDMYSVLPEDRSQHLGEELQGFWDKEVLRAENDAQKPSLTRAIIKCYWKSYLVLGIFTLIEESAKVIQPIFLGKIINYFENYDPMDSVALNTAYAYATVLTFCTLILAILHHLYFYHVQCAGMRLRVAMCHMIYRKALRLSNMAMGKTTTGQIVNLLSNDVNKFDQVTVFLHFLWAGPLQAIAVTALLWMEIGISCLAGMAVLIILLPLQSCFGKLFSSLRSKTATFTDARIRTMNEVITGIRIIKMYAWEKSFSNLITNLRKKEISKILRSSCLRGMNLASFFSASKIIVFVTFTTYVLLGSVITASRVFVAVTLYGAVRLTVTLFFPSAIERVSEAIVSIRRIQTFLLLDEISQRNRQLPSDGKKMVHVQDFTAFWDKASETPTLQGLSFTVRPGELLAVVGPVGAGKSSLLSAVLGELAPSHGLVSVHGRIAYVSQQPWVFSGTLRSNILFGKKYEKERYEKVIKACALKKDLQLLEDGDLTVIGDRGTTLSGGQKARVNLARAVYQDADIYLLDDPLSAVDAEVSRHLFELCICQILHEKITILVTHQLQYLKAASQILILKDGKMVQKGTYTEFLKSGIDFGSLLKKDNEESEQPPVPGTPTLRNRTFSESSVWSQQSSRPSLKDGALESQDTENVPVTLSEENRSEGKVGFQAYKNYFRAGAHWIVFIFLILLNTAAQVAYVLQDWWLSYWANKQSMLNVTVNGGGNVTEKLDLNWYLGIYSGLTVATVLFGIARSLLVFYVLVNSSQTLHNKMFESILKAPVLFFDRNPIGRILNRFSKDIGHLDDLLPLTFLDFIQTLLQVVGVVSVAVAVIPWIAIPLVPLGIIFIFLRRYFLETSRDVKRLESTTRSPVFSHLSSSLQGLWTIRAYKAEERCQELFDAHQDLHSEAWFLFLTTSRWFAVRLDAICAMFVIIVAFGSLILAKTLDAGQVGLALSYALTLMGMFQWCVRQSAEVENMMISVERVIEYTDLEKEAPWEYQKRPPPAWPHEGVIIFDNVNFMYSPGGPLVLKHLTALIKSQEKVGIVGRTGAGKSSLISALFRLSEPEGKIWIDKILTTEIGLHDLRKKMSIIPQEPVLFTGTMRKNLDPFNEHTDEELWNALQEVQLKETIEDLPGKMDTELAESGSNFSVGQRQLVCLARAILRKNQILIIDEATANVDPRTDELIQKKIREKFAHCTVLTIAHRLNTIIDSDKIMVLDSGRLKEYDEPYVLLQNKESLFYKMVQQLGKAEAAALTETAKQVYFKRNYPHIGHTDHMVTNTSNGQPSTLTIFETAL
UniProt Q03154: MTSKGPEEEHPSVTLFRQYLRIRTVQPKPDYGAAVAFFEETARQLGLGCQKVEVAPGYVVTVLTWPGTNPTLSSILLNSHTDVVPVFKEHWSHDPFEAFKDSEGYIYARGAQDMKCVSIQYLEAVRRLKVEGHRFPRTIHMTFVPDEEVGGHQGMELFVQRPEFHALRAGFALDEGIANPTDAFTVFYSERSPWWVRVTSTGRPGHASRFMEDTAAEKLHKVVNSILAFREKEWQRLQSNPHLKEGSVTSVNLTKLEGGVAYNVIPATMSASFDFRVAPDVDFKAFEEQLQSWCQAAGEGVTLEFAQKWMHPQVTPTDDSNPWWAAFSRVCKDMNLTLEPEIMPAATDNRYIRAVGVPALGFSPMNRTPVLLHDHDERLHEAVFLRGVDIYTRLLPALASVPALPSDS
UniProt O96019, whole entry, looked up: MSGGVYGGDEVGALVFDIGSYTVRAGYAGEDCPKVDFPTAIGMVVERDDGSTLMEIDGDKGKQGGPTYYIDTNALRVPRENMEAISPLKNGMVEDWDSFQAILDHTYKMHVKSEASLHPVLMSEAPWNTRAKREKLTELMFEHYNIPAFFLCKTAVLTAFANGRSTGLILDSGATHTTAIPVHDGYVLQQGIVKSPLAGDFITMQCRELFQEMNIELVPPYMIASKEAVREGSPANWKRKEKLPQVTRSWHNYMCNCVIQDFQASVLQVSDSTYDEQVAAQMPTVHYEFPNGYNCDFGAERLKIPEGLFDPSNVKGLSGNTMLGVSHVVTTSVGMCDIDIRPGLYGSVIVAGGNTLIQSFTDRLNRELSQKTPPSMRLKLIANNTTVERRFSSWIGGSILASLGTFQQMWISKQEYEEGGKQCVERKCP
UniProt Q9GZN1, whole entry, looked up: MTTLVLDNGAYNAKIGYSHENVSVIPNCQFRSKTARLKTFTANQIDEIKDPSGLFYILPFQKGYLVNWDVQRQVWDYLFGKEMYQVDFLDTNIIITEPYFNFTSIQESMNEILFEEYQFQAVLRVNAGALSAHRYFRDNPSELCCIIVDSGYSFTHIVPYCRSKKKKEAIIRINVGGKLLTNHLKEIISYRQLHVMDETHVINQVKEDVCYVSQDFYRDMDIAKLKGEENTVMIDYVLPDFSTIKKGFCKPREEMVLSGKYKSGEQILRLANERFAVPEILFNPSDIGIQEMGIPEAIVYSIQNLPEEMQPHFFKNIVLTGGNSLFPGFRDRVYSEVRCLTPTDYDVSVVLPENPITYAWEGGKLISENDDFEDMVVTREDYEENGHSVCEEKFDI
UniProt P28288: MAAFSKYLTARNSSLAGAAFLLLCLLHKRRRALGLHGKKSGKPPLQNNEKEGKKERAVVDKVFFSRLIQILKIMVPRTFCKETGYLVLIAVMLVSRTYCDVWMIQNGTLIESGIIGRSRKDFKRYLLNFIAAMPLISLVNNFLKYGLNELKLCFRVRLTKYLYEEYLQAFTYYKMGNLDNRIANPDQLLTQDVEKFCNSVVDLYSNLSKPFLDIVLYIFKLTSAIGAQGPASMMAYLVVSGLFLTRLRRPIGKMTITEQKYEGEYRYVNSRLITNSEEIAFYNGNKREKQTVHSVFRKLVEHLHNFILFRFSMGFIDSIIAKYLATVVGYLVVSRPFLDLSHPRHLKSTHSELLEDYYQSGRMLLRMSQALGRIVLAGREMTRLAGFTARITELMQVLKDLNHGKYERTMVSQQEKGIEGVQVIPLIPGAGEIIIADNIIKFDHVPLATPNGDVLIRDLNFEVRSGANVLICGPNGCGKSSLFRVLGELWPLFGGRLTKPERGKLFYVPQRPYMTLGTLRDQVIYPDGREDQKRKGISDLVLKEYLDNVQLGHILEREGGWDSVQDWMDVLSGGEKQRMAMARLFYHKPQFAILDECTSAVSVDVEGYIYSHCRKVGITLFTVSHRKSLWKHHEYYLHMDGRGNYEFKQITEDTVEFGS
UniProt Q7Z6V5: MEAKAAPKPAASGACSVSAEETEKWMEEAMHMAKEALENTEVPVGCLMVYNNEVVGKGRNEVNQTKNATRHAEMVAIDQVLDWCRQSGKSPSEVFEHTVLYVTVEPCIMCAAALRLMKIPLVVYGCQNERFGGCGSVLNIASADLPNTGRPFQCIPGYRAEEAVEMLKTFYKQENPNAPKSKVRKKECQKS
UniProt Q9H568: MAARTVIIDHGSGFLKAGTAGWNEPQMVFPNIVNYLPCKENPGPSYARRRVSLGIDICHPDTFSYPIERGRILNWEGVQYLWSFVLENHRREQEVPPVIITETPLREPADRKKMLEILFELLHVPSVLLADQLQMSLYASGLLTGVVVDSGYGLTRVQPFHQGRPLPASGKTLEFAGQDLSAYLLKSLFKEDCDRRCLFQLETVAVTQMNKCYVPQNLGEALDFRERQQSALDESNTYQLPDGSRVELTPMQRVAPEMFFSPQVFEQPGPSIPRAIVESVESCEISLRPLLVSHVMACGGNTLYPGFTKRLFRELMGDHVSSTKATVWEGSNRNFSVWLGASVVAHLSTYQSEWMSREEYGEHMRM

Compound: C[C@@H]1COCCN1C2=NC(=NC(=C2)C3(CC3)S(=O)(=O)C)C4=C5C=CNC5=CC=C4
Experiment: log2 fold change, soluble protein after heating vs DMSO (PISA); higher = thermal stabilisation; K562 cells, 10 uM, 30 min; active = over 0.2 and 3.5 SD of the protein, either way, in both replicates (recomputed)
Method in brief: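 Values are thermal stability changes relative to control samples and are taken from duplicates. They are stated as log2 fold changes. Before quantification by TMTpro 16plex LC-MS/MS with equalised channel sums, K562 cells at 2×10^6 cells/mL were treated with 10 μM compound for 30 min, heated in aliquots for 3 min across 48°C-58°C, pooled, extracted in PBS with 0.5% NP-40 at 4°C, and centrifuged at 21,000xg for 90 min to give the soluble supernatant.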

log2 fold change, inactive:
ACACA isoform 4 (UniProt Q13085) -0.094, ACSS2 isoform 2 (UniProt Q9NR19) 0.077, ACOX1 isoform 2 (UniProt Q15067) -0.001, ACAT1 (UniProt P24752) -0.018, ACTR2 (UniProt P61160) 0.029, ACADS (UniProt P16219) 0.105, ADAM10 (UniProt O14672) -0.031, ABHD12 isoform 2 (UniProt Q8N2K0) -0.06, ADAR isoform 4 (UniProt P55265) -0.131, ACTR10 (UniProt Q9NZ32) 0.004, ABLIM1 (UniProt O14639) 0.099, ABCF3 (UniProt Q9NUQ8) -0.305, ABRAXAS2 (UniProt Q15018) 0.036, ACTA1 (UniProt P68133) 0.001, ADAM17 (UniProt P78536) 0.028, A2M (UniProt P01023) -0.079, ACADSB (UniProt P45954) 0.118, ACOT8 (UniProt O14734) -0.012, ABCC4 (UniProt O15439) 0.063, ACAD8 (UniProt Q9UKU7) 0.009, ACY1 (UniProt Q03154) 0.085, AASDHPPT (UniProt Q9NRN7) 0.045, ACTL6A (UniProt O96019) 0.196, ABCB7 isoform 2 (UniProt O75027) 0.035, ADAL (UniProt Q6DHV7) 0.086, ACTR6 (UniProt Q9GZN1) 0.03, ACO1 (UniProt P21399) 0.078, ACTR3 (UniProt P61158) 0.025, ABCD3 (UniProt P28288) 0.032, ACAA1 (UniProt P09110) -0.034, ABCE1 (UniProt P61221) 0, ADAT2 (UniProt Q7Z6V5) 0.072, ABCF1 (UniProt Q8NE71) -0.157, ACTN4 (UniProt O43707) -0.002, AARS (UniProt P49588) 0.082, ACTL8 (UniProt Q9H568) -0.03
